In the supplement of paper PMC3334620:
Whole data set: some 33,000 sequences, median “E-score (-0.5 to 0.5)” near -0.015, cut for the highest 2% near 0.3. Some of the results follow.

The sequences below were run against T1, Abf1 (UniProt P14164) (assay: PBM E-score (8-mer binding enrichment) (E-score (-0.5 to 0.5)); higher = stronger / more preferred TF binding). Settings: protein concentration: 200 nM; construct: GST-full length.
T1 sequence: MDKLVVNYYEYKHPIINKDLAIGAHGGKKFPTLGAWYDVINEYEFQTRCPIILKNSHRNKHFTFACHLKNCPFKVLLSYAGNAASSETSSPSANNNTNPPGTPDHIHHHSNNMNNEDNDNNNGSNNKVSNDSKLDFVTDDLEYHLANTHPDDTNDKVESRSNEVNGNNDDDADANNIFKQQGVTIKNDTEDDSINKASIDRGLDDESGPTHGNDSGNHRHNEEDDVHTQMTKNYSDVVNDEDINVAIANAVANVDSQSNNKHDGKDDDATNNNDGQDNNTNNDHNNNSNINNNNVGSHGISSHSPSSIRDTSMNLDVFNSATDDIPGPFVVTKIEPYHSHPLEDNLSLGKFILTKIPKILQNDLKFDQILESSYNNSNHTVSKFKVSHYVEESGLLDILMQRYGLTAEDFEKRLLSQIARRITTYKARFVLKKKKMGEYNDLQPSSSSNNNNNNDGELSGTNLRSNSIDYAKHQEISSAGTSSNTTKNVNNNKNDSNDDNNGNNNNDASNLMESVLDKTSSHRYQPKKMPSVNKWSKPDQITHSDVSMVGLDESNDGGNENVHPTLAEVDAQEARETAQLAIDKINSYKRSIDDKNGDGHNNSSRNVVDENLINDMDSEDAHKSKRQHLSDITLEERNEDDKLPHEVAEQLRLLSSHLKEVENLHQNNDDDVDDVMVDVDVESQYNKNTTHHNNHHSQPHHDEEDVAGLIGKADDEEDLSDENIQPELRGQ
Procedure, shortened: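 The E-score, a modified Wilcoxon-Mann-Whitney statistic, was computed by the Universal PBM Analysis Suite for every ungapped eight-base word pooled with its reverse complement. Scans behind it were normalised with masliner after bound GST-tagged yeast transcription factors were detected with fluorescent anti-GST. The proteins, at about 100-200 nM, had been applied to universal all-10-mer Agilent arrays made double-stranded by primer extension.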

**Q.** With CATGGCCA as the sequence, how does the “PBM E-score” value read?
**A.** The value was -0.0361.

**Q.** For CGGATACA, which “PBM E-score” value is on record?
**A.** The value was -0.0953.

**Q.** Which “PBM E-score” value does the source give for AATTGACG here?
**A.** The value was -0.00347.

**Q.** With CCTTAACC as the sequence, how does the “PBM E-score” value read?
**A.** Its value is -0.08.

**Q.** How did the “PBM E-score” value turn out when CCGCATCA was run?
**A.** The value was -0.0404.

**Q.** Which “PBM E-score” value does the source give for GTTACGCA here?
**A.** Its value is 0.0674.

**Q.** Which “PBM E-score” value does the source give for CAGTGGAA here?
**A.** The value was -0.0893.

**Q.** How did the “PBM E-score” value turn out when CAGTACCA was run?
**A.** The value was -0.0538.

**Q.** With AGATCCTG as the sequence, how does the “PBM E-score” value read?
**A.** The value was 0.0554.

**Q.** With CTTCCTCA as the sequence, how does the “PBM E-score” value read?
**A.** Its value is -0.161.

**Q.** How did the “PBM E-score” value turn out when AATTGATA was run?
**A.** Its value is 0.22.

**Q.** Which “PBM E-score” value does the source give for ATGACACA here?
**A.** The value was 0.266.

**Q.** For AGCGGGAA, which “PBM E-score” value is on record?
**A.** Its value is 0.13.

**Q.** How did the “PBM E-score” value turn out when CCCCTCTC was run?
**A.** Its value is -0.242.

**Q.** How did the “PBM E-score” value turn out when ATGATCGC was run?
**A.** Its value is 0.0946.

**Q.** CAGTTAGA was tested. Which “PBM E-score” value did it give?
**A.** Its value is 0.0104.

**Q.** With ATTCGTAA as the sequence, how does the “PBM E-score” value read?
**A.** The value was 0.203.

**Q.** GATACCGC was tested. Which “PBM E-score” value did it give?
**A.** The value was -0.115.

**Q.** ATCATGTA was tested. Which “PBM E-score” value did it give?
**A.** The value was 0.208.

**Q.** For CGTCACAA, which “PBM E-score” value is on record?
**A.** The value was 0.159.

**Q.** With CGAGACCA as the sequence, how does the “PBM E-score” value read?
**A.** Its value is -0.00853.

**Q.** ATGTCATG was tested. Which “PBM E-score” value did it give?
**A.** The value was 0.349.

**Q.** With TATACACA as the sequence, how does the “PBM E-score” value read?
**A.** Its value is -0.00989.

**Q.** With GCAAGCAC as the sequence, how does the “PBM E-score” value read?
**A.** Its value is -0.0888.

**Q.** With AAGAACTC as the sequence, how does the “PBM E-score” value read?
**A.** Its value is -0.031.

**Q.** For GCCTGAGA, which “PBM E-score” value is on record?
**A.** Its value is -0.266.

**Q.** How did the “PBM E-score” value turn out when CTAAGGTC was run?
**A.** The value was -0.203.

**Q.** With GGACGAGA as the sequence, how does the “PBM E-score” value read?
**A.** The value was 0.145.

**Q.** Which “PBM E-score” value does the source give for CATGGGCG here?
**A.** Its value is 0.0639.

**Q.** How did the “PBM E-score” value turn out when ATTCTATA was run?
**A.** The value was 0.026.

**Q.** TCCTATCA was tested. Which “PBM E-score” value did it give?
**A.** The value was 0.194.

**Q.** How did the “PBM E-score” value turn out when ATACGCTG was run?
**A.** Its value is 0.0755.

**Q.** With ACAAAATG as the sequence, how does the “PBM E-score” value read?
**A.** Its value is 0.0785.

**Q.** For GGTAGCGA, which “PBM E-score” value is on record?
**A.** The value was 0.171.

**Q.** How did the “PBM E-score” value turn out when CTCGTTCC was run?
**A.** The value was -0.0442.

**Q.** How did the “PBM E-score” value turn out when CTACAAGC was run?
**A.** Its value is -0.222.

**Q.** Which “PBM E-score” value does the source give for AACTGGCG here?
**A.** The value was -0.114.

**Q.** With CGAGGGAC as the sequence, how does the “PBM E-score” value read?
**A.** Its value is -0.189.

**Q.** CTACCTAG was tested. Which “PBM E-score” value did it give?
**A.** Its value is -0.113.

**Q.** How did the “PBM E-score” value turn out when AAGGTAAT was run?
**A.** The value was 0.201.

**Q.** How did the “PBM E-score” value turn out when CTAAGCCC was run?
**A.** Its value is -0.19.

**Q.** How did the “PBM E-score” value turn out when GATGTCGA was run?
**A.** The value was 0.157.

**Q.** CGATCGTA was tested. Which “PBM E-score” value did it give?
**A.** Its value is 0.252.

**Q.** For CTGCCCTA, which “PBM E-score” value is on record?
**A.** The value was -0.132.

**Q.** AAGAATGG was tested. Which “PBM E-score” value did it give?
**A.** Its value is -0.136.

**Q.** How did the “PBM E-score” value turn out when TAGGAGCA was run?
**A.** Its value is -0.0585.

**Q.** For AATATTTC, which “PBM E-score” value is on record?
**A.** Its value is 0.14.

**Q.** With AGTTTGCG as the sequence, how does the “PBM E-score” value read?
**A.** Its value is -0.137.

**Q.** How did the “PBM E-score” value turn out when CGAACTCA was run?
**A.** The value was -0.0537.

**Q.** How did the “PBM E-score” value turn out when ATACTCCA was run?
**A.** Its value is -0.0491.

**Q.** For ACCCTGTG, which “PBM E-score” value is on record?
**A.** Its value is -0.129.

**Q.** CCCGGTTA was tested. Which “PBM E-score” value did it give?
**A.** Its value is -0.0871.

**Q.** Which “PBM E-score” value does the source give for GCAGCCAC here?
**A.** Its value is -0.139.

**Q.** Which “PBM E-score” value does the source give for GCGGTTCC here?
**A.** Its value is -0.159.

**Q.** Which “PBM E-score” value does the source give for AAACGCGT here?
**A.** Its value is 0.0484.

**Q.** Which “PBM E-score” value does the source give for AACTCCAT here?
**A.** The value was -0.116.

**Q.** For CAATCTCA, which “PBM E-score” value is on record?
**A.** The value was -0.0871.

**Q.** Which “PBM E-score” value does the source give for AAACCAGT here?
**A.** The value was -0.179.

**Q.** How did the “PBM E-score” value turn out when CGGCCGCA was run?
**A.** The value was -0.17.

**Q.** GTGATTAA was tested. Which “PBM E-score” value did it give?
**A.** Its value is 0.249.

**Q.** Which “PBM E-score” value does the source give for GATTCTAC here?
**A.** Its value is 0.0143.

**Q.** ACGGAATC was tested. Which “PBM E-score” value did it give?
**A.** The value was 0.0606.

**Q.** With AAAAGTCG as the sequence, how does the “PBM E-score” value read?
**A.** Its value is -0.0916.

**Q.** Which “PBM E-score” value does the source give for GCACGACA here?
**A.** Its value is 0.338.

**Q.** Which “PBM E-score” value does the source give for TCGAGAGA here?
**A.** Its value is -0.0295.

**Q.** With AGCTGTGA as the sequence, how does the “PBM E-score” value read?
**A.** Its value is 0.0832.

**Q.** With CTTTAGTA as the sequence, how does the “PBM E-score” value read?
**A.** Its value is -0.00184.

**Q.** With AGAATGAT as the sequence, how does the “PBM E-score” value read?
**A.** Its value is 0.33.

**Q.** Which “PBM E-score” value does the source give for GTTCGTAA here?
**A.** The value was 0.234.

**Q.** How did the “PBM E-score” value turn out when GTTGTCCA was run?
**A.** Its value is 0.121.

**Q.** With AAATCCAG as the sequence, how does the “PBM E-score” value read?
**A.** Its value is 0.0334.

**Q.** AAGTACTC was tested. Which “PBM E-score” value did it give?
**A.** Its value is -0.141.

**Q.** For CAATAGTA, which “PBM E-score” value is on record?
**A.** Its value is 0.0115.

**Q.** How did the “PBM E-score” value turn out when ACGCTTAT was run?
**A.** The value was -0.181.

**Q.** With GACCAGGC as the sequence, how does the “PBM E-score” value read?
**A.** The value was -0.226.

**Q.** TAATTCCA was tested. Which “PBM E-score” value did it give?
**A.** The value was 0.0387.

**Q.** With ATTTGGAA as the sequence, how does the “PBM E-score” value read?
**A.** Its value is 0.117.

**Q.** How did the “PBM E-score” value turn out when CTAGGATC was run?
**A.** The value was 0.0897.

**Q.** For GAGTCCTA, which “PBM E-score” value is on record?
**A.** The value was -0.159.

**Q.** ATAGGGTA was tested. Which “PBM E-score” value did it give?
**A.** The value was -0.13.

**Q.** With GCAGAGCA as the sequence, how does the “PBM E-score” value read?
**A.** Its value is -0.216.

**Q.** AACTCCAC was tested. Which “PBM E-score” value did it give?
**A.** Its value is 0.108.

**Q.** For AAGGTCAA, which “PBM E-score” value is on record?
**A.** Its value is -0.122.

**Q.** How did the “PBM E-score” value turn out when CTTGCGAC was run?
**A.** Its value is 0.113.

**Q.** For AGAGACAG, which “PBM E-score” value is on record?
**A.** The value was -0.135.

**Q.** AGATTAGC was tested. Which “PBM E-score” value did it give?
**A.** Its value is 0.0243.

**Q.** Which “PBM E-score” value does the source give for GTGCAGAA here?
**A.** The value was 0.109.

**Q.** With TGAAGGCA as the sequence, how does the “PBM E-score” value read?
**A.** The value was -0.126.

**Q.** How did the “PBM E-score” value turn out when CATGCATA was run?
**A.** Its value is 0.033.

**Q.** TCGGTGCA was tested. Which “PBM E-score” value did it give?
**A.** The value was -0.0272.

**Q.** TAGTGGAA was tested. Which “PBM E-score” value did it give?
**A.** Its value is -0.115.

**Q.** For CTCACATA, which “PBM E-score” value is on record?
**A.** Its value is -0.139.

**Q.** For CGGCCCCA, which “PBM E-score” value is on record?
**A.** The value was -0.305.

**Q.** How did the “PBM E-score” value turn out when ATCGAGCC was run?
**A.** The value was -0.175.
